Measured values published in PMC9262583.
Results are given in words; binding and its absence hold for the method and conditions named. In cells and extracts the contact can be indirect. A yes stands for co-enrichment or nearness to the bait. Other partners may have been found. Sequences can lack the tags named with a protein. One block for each molecule: values may come before it.

Protein sequences, listed by entry. Tags and fused reporters are not part of them.
UniProt Q9NFU0: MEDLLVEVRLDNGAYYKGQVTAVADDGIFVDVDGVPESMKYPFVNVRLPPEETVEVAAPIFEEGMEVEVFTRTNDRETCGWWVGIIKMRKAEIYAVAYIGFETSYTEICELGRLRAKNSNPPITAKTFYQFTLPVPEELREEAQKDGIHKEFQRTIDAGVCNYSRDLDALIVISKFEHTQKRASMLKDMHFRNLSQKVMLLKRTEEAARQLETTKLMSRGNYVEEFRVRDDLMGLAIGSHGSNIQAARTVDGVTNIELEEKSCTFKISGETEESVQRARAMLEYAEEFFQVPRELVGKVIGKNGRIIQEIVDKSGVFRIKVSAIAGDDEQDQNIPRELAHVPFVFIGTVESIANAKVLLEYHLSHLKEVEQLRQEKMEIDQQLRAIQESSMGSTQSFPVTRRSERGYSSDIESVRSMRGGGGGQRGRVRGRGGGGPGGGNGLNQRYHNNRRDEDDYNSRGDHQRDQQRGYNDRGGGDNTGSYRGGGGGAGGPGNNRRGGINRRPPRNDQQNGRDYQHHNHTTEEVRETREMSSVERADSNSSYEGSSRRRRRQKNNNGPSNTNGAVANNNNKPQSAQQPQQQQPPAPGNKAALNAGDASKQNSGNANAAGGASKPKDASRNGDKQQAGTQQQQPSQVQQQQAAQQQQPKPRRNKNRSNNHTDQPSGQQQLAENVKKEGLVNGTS

Target: T1, GFP-tagged Glorund (GFP-Glo) (Drosophila) (UniProt Q9VGH5)
T1 sequence: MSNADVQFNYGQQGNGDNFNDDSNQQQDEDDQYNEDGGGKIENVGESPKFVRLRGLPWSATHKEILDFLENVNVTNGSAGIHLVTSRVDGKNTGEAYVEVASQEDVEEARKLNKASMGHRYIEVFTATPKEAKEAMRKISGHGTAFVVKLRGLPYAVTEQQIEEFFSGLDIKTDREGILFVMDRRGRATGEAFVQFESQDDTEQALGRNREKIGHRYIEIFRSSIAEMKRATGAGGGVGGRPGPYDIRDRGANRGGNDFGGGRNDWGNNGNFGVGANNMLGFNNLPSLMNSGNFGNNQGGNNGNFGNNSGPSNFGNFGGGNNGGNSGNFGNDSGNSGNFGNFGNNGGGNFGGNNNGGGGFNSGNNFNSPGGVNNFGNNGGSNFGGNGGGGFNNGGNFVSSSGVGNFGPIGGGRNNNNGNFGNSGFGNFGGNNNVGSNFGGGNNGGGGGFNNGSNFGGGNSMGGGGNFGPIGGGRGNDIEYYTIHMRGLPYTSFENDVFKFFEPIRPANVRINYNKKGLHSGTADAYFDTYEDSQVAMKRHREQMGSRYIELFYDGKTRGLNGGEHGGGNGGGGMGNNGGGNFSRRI
Experiment: affinity purification with mass spectrometry; GFP-Trap_A immunoprecipitation of GFP-Glo from RNase-treated late-ovary extract, LC-MS/MS; native IP (against MCP-GFP control) and DSP-crosslinked IP washed with 1 M NaCl (against un-crosslinked control); hits common to both, a single experiment for each condition

binding: binds
Molecule: Drosophila fragile X mental retardation protein (dFMRP), endogenous (from UniProt Q9NFU0 1-684)

binding: binds
Molecule: eIF4E (Drosophila (endogenous in late-ovaries))

binding: binds
B1: Caprin (protein, UniProt Q9I7D3 1-961)
chain: MPSAANTATVTAAIATTVAASASNTNNNSVSKEKRSSIISLGGSVIPGTAVAAGAGVATTNGQSNSSAAATADGSQTDLASSNNNGNAAKSKANAVSAAAVVPEPYNPLKQLLVTIEHKIRNLEKRKTKLESYRAIQSSGKELSGDQASAVAKYDAVLANLEFARELAKHIQQQSKEAEKEQKKQARKDNLAKTIAETAKIREVLIIQNVLNCFNDDQVRSDFLNGENGAKKLENTELELLEKFFIETQTRRPETADDVSFIATAQKSAELFYSTINARPKSFGEVSFEKLRSLFQQIQDSGYLDKYYLVPLAENAVANSTDSGTGSGDGESGDLLNDGSGELDAELPSEPSARNSLEEGLDKLHLGVQAELDQHQSYQQQQERPSHLLEPQHQRAPSLEHQQNSMVQQVSTQVYQAAPQAGGTTTPVHVLYAPAPPAQQQPQQPPPHPHQLLSSPVNLQALQTGTAAPPAQQQQPHPTHFAPNVRAVEQNYFKQPPQHPQGPGIQAPQTPQQQQFMQHSRPLAEVLGTGRFHFLQDSELDNPEALAPPPPTNQGLVFEQQPQQPNHVEEPTQAILTLTFTNQSFPSQQPQPQQQGPQQQQQLFSPVLIHEQRQQPPQQQPQPMLIMPRLPTQQPQQPAPQGIGMQAGDVTSGFSYENAVVSYEQQIQQQLKQQQQQQQQQQQNLQQLDEPSSVNSSSSVGAGGDVENNEWHARNNDTNAAATAALTNVLKGETTQATPPAPPTKWSSEMNAMSSAASNGSSNTSHKQEWATPRDHSTGGGNSGYADNNESNNHWNNSQGDGRRNSGNYQRRGGDRDNRDRDQGGRGDERRNGGDRGNYRSRQYGNSSNTNGRNSGNSSGVYFRNNESGNGGGNNYYQNGGGGGGTYNKESRYESSGGGGGSYRGQRGGNQQRNVNGSYGGGRPMGDRGRGGAGNQGGGGGGYINRQNQSQRMPLGLENKN
